A short description of the data set: peptide made by a vendor (Fmoc solid-phase peptide synthesis; Rink Amide MBHA resin; DIC/HOBt). The conditions noted are these: whole synthesis.

With FITC-6Ahx-IKRKRPFVLKKKRGRKRRRI-NH2, for the setting “scale 0.2 mmol”, the isolated mass is 78 mg and the isolated yield is listed as 12.5%.
For the setting “scale 0.15 mmol”, FITC-6Ahx-KFFKLKHFILNILKQ-NH2 came in with an isolated mass of 80 mg and an isolated yield of 19%.
Under “scale 0.2 mmol”, FITC-6Ahx-KLWKKKELLQRAEKKKKIKK-NH2 showed an isolated mass of 52 mg and an isolated yield of 8.5%.
Regarding “FITC-6Ahx-KVFSPKKKMEFFLLF-NH2 (FITC-6Ahx N-terminus; C-terminal amide)”, where the note is “scale 0.15 mmol”, the isolated mass turned out to be 50 mg and the isolated yield was 12%.
In the same order, the values of “FITC-6Ahx-LLPQWPRIRHIKLLR-NH2 (FITC-6Ahx N-terminus; C-terminal amide)” are 90 mg and 21%.
As for FITC-6Ahx-LRLLHRRQKRIIGGK-NH2, for the setting “scale 0.2 mmol”, the isolated mass is listed as 19 mg and the isolated yield was found to be 4.0%.
In the same order, the values of FITC-6Ahx-MPKFKQRRRKLKAKAERLFK-NH2 are 75 mg and 12.2%.
Take “FITC-6Ahx-MRMIRFRKKIPYLRY-NH2 (FITC-6Ahx N-terminus; C-terminal amide)”: where the note is “scale 0.15 mmol”, the isolated mass turned out to be 55 mg and the isolated yield was determined as 11%.
Under “scale 0.15 mmole”, FITC-6Ahx-MVLKFFRWLFRLLFR-NH2 had an isolated mass of 80 mg and an isolated yield of 18%.
Under “scale 0.2 mm”, FITC-6Ahx-MWQPRRPWPRVPWRW-NH2 gave an isolated mass of 15 mg and an isolated yield of 2.8%.
For the substance FITC-6Ahx-PKWTRPLLPFWKRYL-NH2, under “scale 0.15 mmol”, the isolated mass is 50 mg and the isolated yield amounted to 11%.
In the same order, the values of FITC-6Ahx-RLWEFYKLYKRRHRV-NH2 are 90 mg and 18%.
Under “scale 0.2 mmol”, FITC-6Ahx-RQHGLRHFYNRRRRS-NH2 displayed an isolated mass of 17 mg and an isolated yield of 3.3%.
In the same order, the values of FITC-6Ahx-RTTRRWKRWFKFRKRKGEKR-NH2 are 17 mg and 2.6%.
With FITC-6Ahx-RWFAFKMMMAKKWAK-NH2, where the note is “scale 0.15 mmol”, the isolated mass is reported as 20 mg and the isolated yield is given as 4%.
With FITC-6Ahx-SKIVRVIFRYAKWLF-NH2, under “scale 0.15 mmol”, the isolated mass came to 25 mg and the isolated yield is 6%.
The matching figures for “FITC-6Ahx-VKIWFQNRRVRWRKR-NH2 (FITC-6Ahx N-terminus, C-terminal amide)”: 60 mg and 12%.
Under “scale 0.2 mmol”, FITC-6Ahx-YLKFIPLKRAIWLIK-NH2 yielded an isolated mass of 15 mg and an isolated yield of 3.1%.

(Values after patent US20150183827A1 (Hoffmann-La Roche Inc., priority 2012, published 2015).)
